From publication PMC8565353

The chains behind the UniProt entries cited, without tags or fusion partners.
UniProt Q6P6C2: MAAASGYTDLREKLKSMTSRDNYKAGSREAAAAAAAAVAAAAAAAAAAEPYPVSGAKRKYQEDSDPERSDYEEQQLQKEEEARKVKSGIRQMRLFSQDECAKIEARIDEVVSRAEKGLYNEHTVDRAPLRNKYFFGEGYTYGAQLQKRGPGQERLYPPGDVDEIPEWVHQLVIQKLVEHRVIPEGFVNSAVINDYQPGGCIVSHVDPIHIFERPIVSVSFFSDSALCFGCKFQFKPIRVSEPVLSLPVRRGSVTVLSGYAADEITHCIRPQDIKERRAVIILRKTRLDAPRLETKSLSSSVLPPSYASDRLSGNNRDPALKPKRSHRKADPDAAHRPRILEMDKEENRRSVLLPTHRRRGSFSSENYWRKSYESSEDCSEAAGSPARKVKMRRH

T1: METTL16, C-terminal BirA* fusion (human) (UniProt Q86W50)
T1 sequence: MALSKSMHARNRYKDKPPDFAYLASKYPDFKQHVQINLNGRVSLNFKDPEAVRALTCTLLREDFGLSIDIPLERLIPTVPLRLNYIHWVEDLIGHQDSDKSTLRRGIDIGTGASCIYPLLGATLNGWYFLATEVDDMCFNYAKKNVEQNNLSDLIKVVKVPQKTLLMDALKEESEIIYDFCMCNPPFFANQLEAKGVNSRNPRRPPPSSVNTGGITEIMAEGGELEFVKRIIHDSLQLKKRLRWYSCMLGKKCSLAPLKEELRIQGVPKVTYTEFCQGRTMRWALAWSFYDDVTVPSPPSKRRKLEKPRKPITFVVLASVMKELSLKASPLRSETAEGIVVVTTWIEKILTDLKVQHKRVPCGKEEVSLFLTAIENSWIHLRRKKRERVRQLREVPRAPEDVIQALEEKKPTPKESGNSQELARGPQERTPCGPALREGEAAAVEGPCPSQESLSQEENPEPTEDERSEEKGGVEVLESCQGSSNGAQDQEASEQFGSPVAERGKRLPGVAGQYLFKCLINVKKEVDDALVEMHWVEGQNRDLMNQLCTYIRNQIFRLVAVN


How the values were obtained:
[1] = biological target: ALKBH5-Strep II-HA (human) (UniProt Q6P6C2); assay: affinity purification with mass spectrometry; Strep II-tagged bait captured on StrepTactinXT beads from 293T total lysate, 4 h at 4°C, with RNase inhibitor (-RNase A) or with 2 μg/ml RNase A; washes with 350 mM KCl; LC-MS/MS; against Strep II-eGFP control
[2] = biological target: ALKBH5, BirA* fusion (human) (UniProt Q6P6C2); assay: proximity labelling; BioID: BirA*-fused bait induced with 200 ng/ml dox in stable 293T cells, 50 μM biotin for 24 h, streptavidin bead purification of biotinylated proteins, LC-MS/MS; hits filtered by Limma (>4-fold, adjusted P < 0.01) and SAINT (score >0.74) against BirA* and NLS-BirA* controls
[3] = biological target: T1, METTL16, C-terminal BirA* fusion (human); assay: as above
[4] = biological target: FTO, N-terminal BirA* fusion (human) (UniProt Q9C0B1); assay: as above

Binder | binding [1] | binding [2] | binding [3] | binding [4]
SRSF7 (protein, UniProt Q16629 1-238) MSRYGRYGGETKVYVGNLGTGAGKGELERAFSYYGPLRTVWIARNPPGFAFVEFEDPRDAEDAVRGLDGKVICGSRVRVELSTGMPRRSRFDRPPARRPFDPNDRCYECGEKGHYAYDCHRYSRRRRSRSRSRSHSRSRGRRYSRSRSRSRGRRSRSASPRRSRSISLRRSRSASLRRSRSGSIKGSRYFQSPSRSRSRSRSISRPRSSRSKSRSPSPKRSRSPSGSPRRSASPERMD | binds | binds |  | 
LAS1L (protein, UniProt Q9Y4W2 1-734) MSWESGAGPGLGSQGMDLVWSAWYGKCVKGKGSLPLSAHGIVVAWLSRAEWDQVTVYLFCDDHKLQRYALNRITVWRSRSGNELPLAVASTADLIRCKLLDVTGGLGTDELRLLYGMALVRFVNLISERKTKFAKVPLKCLAQEVNIPDWIVDLRHELTHKKMPHINDCRRGCYFVLDWLQKTYWCRQLENSLRETWELEEFREGIEEEDQEEDKNIVVDDITEQKPEPQDDGKSTESDVKADGDSKGSEEVDSHCKKALSHKELYERARELLVSYEEEQFTVLEKFRYLPKAIKAWNNPSPRVECVLAELKGVTCENREAVLDAFLDDGFLVPTFEQLAALQIEYEDGQTEVQRGEGTDPKSHKNVDLNDVLVPKPFSQFWQPLLRGLHSQNFTQALLERMLSELPALGISGIRPTYILRWTVELIVANTKTGRNARRFSAGQWEARRGWRLFNCSASLDWPRMVESCLGSPCWASPQLLRIIFKAMGQGLPDEEQEKLLRICSIYTQSGENSLVQEGSEASPIGKSPYTLDSLYWSVKPASSSFGSEAKAQQQEEQGSVNDVKEEEKEEKEVLPDQVEEEEENDDQEEEEEDEDDEDDEEEDRMEVGPFSTGQESPTAENARLLAQKRGALQGSAWQVSSEDVRWDTFPLGRMPGQTEDPAELMLENYDTMYLLDQPVLEQRLEPSTCKTDTLGLSCGVGSGNCSNSSSSNFEGLLWSQGQLHGLKTGLQLF | binds | binds |  | 
TEX10 (protein, UniProt Q9NXF1 1-929) MTKKRKRQHDFQKVKLKVGKKKPKLQNATPTNFKTKTIHLPEQLKEDGTLPTNNRKLNIKDLLSQMHHYNAGVKQSALLGLKDLLSQYPFIIDAHLSNILSEVTAVFTDKDANVRLAAVQLLQFLAPKIRAEQISPFFPLVSAHLSSAMTHITEGIQEDSLKVLDILLEQYPALITGRSSILLKNFVELISHQQLSKGLINRDRSQSWILSVNPNRRLTSQQWRLKVLVRLSKFLQALADGSSRLRESEGLQEQKENPHATSNSIFINWKEHANDQQHIQVYENGGSQPNVSSQFRLRYLVGGLSGVDEGLSSTENLKGFIEIIIPLLIECWVEAVPPQLATPVGNGIEREPLQVMQQVLNIISLLWKLSKQQDETHKLESWLRKNYLIDFKHHFMSRFPYVLKEITKHKRKEPNKSIKHCTVLSNNIDHLLLNLTLSDIMVSLANASTLQKDCSWIEMIRKFVTETLEDGSRLNSKQLNRLLGVSWRLMQIQPNREDTETLIKAVYTLYQQRGLILPVRTLLLKFFSKIYQTEELRSCRFRYRSKVLSRWLAGLPLQLAHLGSRNPELSTQLIDIIHTAAARANKELLKSLQATALRIYDPQEGAVVVLPADSQQRLVQLVYFLPSLPADLLSRLSRCCIMGRLSSSLAAMLIGILHMRSSFSGWKYSAKDWLMSDVDYFSFLFSTLTGFSKEELTWLQSLRGVPHVIQTQLSPVLLYLTDLDQFLHHWDVTEAVFHSLLVIPARSQNFDILQSAISKHLVGLTVIPDSTAGCVFGVICKLLDHTCVVSETLLPFLASCCYSLLYFLLTIEKGEAEHLRKRDKLWGVCVSILALLPRVLRLMLQSLRVNRVGPEELPVVGQLLRLLLQHAPLRTHMLTNAILVQQIIKNITTLKSGSVQEQWLTDLHYCFNVYITGHPQGPSALATVY | binds | binds |  | 
ZC3H14 (protein, UniProt Q6PJT7 1-736) MEIGTEISRKIRSAIKGKLQELGAYVDEELPDYIMVMVANKKSQDQMTEDLSLFLGNNTIRFTVWLHGVLDKLRSVTTEPSSLKSSDTNIFDSNVPSNKSNFSRGDERRHEAAVPPLAIPSARPEKRDSRVSTSSQESKTTNVRQTYDDGAATRLMSTVKPLREPAPSEDVIDIKPEPDDLIDEDLNFVQENPLSQKKPTVTLTYGSSRPSIEIYRPPASRNADSGVHLNRLQFQQQQNSIHAAKQLDMQSSWVYETGRLCEPEVLNSLEETYSPFFRNNSEKMSMEDENFRKRKLPVVSSVVKVKKFNHDGEEEEEDDDYGSRTGSISSSVSVPAKPERRPSLPPSKQANKNLILKAISEAQESVTKTTNYSTVPQKQTLPVAPRTRTSQEELLAEVVQGQSRTPRISPPIKEEETKGDSVEKNQGTQQRQLLSRLQIDPVMAETLQMSQDYYDMESMVHADTRSFILKKPKLSEEVVVAPNQESGMKTADSLRVLSGHLMQTRDLVQPDKPASPKFIVTLDGVPSPPGYMSDQEEDMCFEGMKPVNQTAASNKGLRGLLHPQQLHLLSRQLEDPNGSFSNAEMSELSVAQKPEKLLERCKYWPACKNGDECAYHHPISPCKAFPNCKFAEKCLFVHPNCKYDAKCTKPDCPFTHVSRRIPVLSPKPAVAPPAPPSSSQLCRYFPACKKMECPFYHPKHCRFNTQCTRPDCTFYHPTINVPPRHALKWIRPQTSE | binds | binds |  | 
TRUB1 (enzyme, UniProt Q8WWH5 1-349) MAASEAAVVSSPSLKTDTSPVLETAGTVAAMAATPSARAAAAVVAAAARTGSEARVSKAALATKLLSLSGVFAVHKPKGPTSAELLNRLKEKLLAEAGMPSPEWTKRKKQTLKIGHGGTLDSAARGVLVVGIGSGTKMLTSMLSGSKRYTAIGELGKATDTLDSTGRVTEEKPYDKITQEDIEGILQKFTGNIMQVPPLYSALKKDGQRLSTLMKRGEVVEAKPARPVTVYSISLQKFQPPFFTLDVECGGGFYIRSLVSDIGKELSSCANVLELTRTKQGPFTLEEHALPEDKWTIDDIAQSLEHCSSLFPAELALKKSKPESNEQVLSCEYITLNEPKREDDVIKTC |  |  | binds | binds
DDX49 (protein, UniProt Q9Y6V7 1-483) MAGFAELGLSSWLVEQCRQLGLKQPTPVQLGCIPAILEGRDCLGCAKTGSGKTAAFVLPILQKLSEDPYGIFCLVLTPTRELAYQIAEQFRVLGKPLGLKDCIIVGGMDMVAQALELSRKPHVVIATPGRLADHLRSSNTFSIKKIRFLVMDEADRLLEQGCTDFTVDLEAILAAVPARRQTLLFSATLTDTLRELQGLATNQPFFWEAQAPVSTVEQLDQRYLLVPEKVKDAYLVHLIQRFQDEHEDWSIIIFTNTCKTCQILCMMLRKFSFPTVALHSMMKQKERFAALAKFKSSIYRILIATDVASRGLDIPTVQVVINHNTPGLPKIYIHRVGRTARAGRQGQAITLVTQYDIHLVHAIEEQIKKKLEEFSVEEAEVLQILTQVNVVRRECEIKLEAAHFDEKKEINKRKQLILEGKDPDLEAKRKAELAKIKQKNRRFKEKVEETLKRQKAGRAGHKGRPPRTPSGSHSGPVPSQGLV |  |  | binds | 
RRP1 (protein, UniProt P56182 1-461) MVSRVQLPPEIQLAQRLAGNEQVTRDRAVRKLRKYIVARTQRAAGGFTHDELLKVWKGLFYCMWMQDKPLLQEELGRTISQLVHAFQTTEAQHLFLQAFWQTMNREWTGIDRLRLDKFYMLMRMVLNESLKVLKMQGWEERQIEELLELLMTEILHPSSQAPNGVKSHFIEIFLEELTKVGAEELTADQNLKFIDPFCRIAARTKDSLVLNNITRGIFETIVEQAPLAIEDLLNELDTQDEEVASDSDESSEGGERGDALSQKRSEKPPAGSICRAEPEAGEEQAGDDRDSGGPVLQFDYEAVANRLFEMASRQSTPSQNRKRLYKVIRKLQDLAGGIFPEDEIPEKACRRLLEGRRQKKTKKQKRLLRLQQERGKGEKEPPSPGMERKRSRRRGVGADPEARAEAGEQPGTAERALLRDQPRGRGQRGARQRRRTPRPLTSARAKAANVQEPEKKKKRRE |  |  | binds | 

Results are given in words; binding and its absence hold for the method and conditions named. Binding seen in cells or lysates may run through a third protein. These calls come from enrichment with a bait or labelling near it, and not all partners need be listed. For part of these data: Sequences can lack the tags named with a protein.
